# Measurements from the supplement of paper PMC7666118.
# By UniProt entry, the sequences of proteins in these tests, tags left out. Where a name states a change or a piece, a line headed by the entry shows the natural chain unless it says otherwise.
# UniProt O00629, whole entry: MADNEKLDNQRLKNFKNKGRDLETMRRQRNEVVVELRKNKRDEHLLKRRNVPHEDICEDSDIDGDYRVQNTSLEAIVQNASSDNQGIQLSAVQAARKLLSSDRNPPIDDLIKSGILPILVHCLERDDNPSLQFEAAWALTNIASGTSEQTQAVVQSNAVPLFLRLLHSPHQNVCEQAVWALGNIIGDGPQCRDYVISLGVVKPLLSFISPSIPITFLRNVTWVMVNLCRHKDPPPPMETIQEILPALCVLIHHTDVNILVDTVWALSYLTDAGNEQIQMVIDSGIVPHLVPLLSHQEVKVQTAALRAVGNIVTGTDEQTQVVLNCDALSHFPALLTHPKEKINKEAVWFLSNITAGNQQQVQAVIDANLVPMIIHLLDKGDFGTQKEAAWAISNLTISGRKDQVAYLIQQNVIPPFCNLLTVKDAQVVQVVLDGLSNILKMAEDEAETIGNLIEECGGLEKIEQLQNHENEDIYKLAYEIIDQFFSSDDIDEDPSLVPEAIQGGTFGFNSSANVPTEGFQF
# UniProt Q9Y496, whole entry: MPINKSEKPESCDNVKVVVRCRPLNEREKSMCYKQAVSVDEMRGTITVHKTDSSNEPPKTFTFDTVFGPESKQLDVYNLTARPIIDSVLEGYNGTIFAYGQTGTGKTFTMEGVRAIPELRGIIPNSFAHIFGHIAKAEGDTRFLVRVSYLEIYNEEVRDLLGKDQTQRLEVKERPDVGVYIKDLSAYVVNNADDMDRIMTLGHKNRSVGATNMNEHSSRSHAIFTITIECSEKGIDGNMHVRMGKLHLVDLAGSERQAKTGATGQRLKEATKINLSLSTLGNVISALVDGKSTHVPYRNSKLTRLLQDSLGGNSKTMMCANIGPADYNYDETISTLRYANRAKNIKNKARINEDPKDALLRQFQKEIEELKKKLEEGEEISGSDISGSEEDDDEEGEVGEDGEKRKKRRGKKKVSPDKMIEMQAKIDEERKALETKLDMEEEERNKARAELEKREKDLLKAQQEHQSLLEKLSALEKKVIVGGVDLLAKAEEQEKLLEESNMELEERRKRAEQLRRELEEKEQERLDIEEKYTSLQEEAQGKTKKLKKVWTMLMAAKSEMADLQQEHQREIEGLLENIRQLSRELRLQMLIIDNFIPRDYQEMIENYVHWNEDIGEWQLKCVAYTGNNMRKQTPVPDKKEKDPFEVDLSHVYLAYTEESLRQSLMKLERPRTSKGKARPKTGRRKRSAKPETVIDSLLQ
# UniProt Q8WZA0: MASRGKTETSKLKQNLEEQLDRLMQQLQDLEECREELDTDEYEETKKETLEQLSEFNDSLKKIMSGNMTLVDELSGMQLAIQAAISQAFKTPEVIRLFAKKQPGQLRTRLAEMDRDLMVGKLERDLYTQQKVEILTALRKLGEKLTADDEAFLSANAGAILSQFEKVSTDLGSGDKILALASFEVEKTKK
# UniProt P52294, whole entry: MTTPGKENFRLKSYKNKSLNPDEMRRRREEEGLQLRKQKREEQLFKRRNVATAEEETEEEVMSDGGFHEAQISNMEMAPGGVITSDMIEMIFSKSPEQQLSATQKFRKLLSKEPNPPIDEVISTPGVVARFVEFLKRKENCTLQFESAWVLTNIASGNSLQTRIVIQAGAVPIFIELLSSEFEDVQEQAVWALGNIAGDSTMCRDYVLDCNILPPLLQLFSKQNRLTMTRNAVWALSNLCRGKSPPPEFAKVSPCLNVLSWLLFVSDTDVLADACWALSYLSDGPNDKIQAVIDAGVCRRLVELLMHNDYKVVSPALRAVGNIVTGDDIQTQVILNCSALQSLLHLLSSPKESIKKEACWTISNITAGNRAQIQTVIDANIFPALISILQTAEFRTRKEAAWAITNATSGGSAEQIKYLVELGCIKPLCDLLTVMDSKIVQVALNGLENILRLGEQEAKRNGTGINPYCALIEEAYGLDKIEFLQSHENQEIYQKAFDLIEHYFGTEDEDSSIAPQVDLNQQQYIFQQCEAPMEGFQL
# UniProt Q96AT1: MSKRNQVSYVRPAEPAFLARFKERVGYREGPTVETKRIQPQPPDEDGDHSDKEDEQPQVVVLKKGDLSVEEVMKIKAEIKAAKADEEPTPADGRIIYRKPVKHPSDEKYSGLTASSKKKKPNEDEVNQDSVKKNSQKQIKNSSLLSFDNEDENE
# UniProt P53667: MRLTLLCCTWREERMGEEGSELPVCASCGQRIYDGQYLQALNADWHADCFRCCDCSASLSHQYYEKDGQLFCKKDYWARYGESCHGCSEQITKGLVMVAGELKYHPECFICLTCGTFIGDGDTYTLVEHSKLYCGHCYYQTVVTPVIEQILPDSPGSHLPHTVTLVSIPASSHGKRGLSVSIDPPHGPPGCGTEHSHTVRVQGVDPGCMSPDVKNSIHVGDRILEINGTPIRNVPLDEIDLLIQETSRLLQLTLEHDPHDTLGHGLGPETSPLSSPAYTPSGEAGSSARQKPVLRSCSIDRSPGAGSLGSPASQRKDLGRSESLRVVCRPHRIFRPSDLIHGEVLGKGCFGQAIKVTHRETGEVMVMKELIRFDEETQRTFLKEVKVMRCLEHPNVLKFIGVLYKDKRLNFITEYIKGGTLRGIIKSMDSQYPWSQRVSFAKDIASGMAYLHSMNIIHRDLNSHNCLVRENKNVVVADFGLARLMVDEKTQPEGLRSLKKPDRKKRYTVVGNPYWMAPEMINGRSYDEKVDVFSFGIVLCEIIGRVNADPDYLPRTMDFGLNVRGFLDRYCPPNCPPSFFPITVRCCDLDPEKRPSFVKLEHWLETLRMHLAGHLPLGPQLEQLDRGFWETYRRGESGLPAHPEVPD
# UniProt Q9Y333: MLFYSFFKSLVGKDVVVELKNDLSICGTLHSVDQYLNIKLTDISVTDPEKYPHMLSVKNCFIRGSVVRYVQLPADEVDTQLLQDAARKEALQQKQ
# UniProt Q9NQ29: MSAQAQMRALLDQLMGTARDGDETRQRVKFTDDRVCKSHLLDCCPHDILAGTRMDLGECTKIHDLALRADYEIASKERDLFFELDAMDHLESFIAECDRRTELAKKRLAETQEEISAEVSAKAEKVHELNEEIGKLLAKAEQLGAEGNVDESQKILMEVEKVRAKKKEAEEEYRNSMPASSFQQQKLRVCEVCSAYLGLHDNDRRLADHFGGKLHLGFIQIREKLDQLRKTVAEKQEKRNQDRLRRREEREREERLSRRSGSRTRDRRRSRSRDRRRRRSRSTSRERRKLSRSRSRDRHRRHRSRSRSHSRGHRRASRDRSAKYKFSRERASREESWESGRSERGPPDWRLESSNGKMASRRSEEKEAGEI
# UniProt Q8N163, whole entry: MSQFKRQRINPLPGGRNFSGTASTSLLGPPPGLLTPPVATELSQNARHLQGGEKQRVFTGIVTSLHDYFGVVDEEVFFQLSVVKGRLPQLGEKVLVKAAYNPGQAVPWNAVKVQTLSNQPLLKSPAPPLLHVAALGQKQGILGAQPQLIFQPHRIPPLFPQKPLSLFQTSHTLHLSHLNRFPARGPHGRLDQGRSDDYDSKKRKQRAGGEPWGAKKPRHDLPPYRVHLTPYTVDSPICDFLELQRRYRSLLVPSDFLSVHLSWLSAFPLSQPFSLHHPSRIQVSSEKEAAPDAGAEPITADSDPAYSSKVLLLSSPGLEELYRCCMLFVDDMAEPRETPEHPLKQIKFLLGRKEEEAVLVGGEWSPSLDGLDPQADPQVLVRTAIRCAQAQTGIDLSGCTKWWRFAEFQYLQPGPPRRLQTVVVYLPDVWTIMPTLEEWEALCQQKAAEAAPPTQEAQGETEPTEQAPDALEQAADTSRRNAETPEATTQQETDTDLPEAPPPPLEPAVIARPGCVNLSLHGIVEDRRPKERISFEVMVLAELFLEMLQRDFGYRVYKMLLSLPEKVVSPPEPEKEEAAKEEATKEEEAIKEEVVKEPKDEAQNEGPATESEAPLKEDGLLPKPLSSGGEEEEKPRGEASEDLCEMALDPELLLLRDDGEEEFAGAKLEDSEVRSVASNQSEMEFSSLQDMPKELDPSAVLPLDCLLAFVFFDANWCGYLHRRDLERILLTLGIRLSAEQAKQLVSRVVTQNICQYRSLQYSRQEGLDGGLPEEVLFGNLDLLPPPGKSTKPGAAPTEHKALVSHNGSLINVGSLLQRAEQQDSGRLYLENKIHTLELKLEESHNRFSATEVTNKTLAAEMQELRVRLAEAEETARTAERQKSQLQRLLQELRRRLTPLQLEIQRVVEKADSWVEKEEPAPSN
# UniProt Q96GA3: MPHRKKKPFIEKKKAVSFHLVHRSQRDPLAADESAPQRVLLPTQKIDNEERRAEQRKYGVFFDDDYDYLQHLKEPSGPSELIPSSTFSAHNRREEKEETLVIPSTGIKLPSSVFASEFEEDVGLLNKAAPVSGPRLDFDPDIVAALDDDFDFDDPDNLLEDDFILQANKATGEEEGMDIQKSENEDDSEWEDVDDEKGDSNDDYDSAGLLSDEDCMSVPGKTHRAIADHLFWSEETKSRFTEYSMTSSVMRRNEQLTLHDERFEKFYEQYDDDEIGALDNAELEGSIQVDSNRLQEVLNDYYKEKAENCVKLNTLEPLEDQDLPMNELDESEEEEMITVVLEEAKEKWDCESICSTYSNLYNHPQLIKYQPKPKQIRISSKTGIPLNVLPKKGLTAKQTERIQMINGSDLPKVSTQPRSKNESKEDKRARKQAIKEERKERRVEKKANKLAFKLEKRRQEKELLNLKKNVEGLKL
# UniProt Q9BT23: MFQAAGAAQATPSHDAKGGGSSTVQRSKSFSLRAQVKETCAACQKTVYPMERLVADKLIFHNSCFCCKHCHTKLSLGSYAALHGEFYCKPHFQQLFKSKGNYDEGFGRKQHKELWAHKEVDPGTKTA
# UniProt Q9UHB6: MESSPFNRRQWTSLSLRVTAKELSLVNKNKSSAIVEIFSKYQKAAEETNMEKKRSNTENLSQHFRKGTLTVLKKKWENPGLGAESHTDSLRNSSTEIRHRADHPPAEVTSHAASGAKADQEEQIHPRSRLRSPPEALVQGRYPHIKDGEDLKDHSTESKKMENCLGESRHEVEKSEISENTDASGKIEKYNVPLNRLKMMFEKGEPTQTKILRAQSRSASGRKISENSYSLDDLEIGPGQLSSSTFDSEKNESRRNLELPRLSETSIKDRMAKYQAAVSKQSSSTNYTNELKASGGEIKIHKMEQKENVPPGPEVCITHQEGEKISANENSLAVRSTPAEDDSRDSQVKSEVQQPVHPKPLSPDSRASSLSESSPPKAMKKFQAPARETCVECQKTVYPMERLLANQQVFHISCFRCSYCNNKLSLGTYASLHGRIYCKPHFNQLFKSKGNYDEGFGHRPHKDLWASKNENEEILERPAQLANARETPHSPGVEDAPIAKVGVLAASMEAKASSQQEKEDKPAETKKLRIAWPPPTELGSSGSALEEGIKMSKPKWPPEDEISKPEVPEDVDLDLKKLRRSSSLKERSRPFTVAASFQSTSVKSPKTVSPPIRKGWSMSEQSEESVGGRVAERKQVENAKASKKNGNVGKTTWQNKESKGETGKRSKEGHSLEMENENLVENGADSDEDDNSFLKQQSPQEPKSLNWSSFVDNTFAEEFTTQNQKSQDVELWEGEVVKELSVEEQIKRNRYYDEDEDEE
# UniProt Q02241: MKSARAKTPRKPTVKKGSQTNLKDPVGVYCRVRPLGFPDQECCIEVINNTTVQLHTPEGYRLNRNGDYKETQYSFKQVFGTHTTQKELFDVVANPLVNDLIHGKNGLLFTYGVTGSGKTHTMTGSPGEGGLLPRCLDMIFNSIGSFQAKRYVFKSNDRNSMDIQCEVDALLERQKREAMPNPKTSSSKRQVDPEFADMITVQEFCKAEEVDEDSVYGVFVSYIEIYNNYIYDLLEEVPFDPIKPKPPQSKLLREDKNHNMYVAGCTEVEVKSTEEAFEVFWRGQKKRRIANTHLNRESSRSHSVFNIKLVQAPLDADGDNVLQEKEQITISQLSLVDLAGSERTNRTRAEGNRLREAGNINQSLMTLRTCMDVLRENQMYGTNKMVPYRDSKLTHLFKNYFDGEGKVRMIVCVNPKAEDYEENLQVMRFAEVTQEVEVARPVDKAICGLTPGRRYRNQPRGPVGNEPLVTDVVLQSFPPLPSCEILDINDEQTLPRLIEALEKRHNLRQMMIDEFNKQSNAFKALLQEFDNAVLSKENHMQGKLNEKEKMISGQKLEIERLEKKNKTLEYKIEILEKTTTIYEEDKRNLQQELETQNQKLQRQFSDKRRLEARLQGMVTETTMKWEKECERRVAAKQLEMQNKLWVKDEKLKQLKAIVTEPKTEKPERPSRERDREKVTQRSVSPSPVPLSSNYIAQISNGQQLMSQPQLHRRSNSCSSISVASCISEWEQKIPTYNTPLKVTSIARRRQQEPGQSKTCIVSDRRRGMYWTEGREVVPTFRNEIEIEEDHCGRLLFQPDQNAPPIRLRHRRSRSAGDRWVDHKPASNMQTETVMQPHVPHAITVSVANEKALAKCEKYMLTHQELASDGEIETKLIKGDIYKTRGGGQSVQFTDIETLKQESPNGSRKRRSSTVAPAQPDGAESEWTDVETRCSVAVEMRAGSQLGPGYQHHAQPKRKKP
# The list shows a part of the results.
# Compound: COc1ccc(Cn2ccc3ccc(C(=O)NO)cc32)cc1
# Assay: dose-dependent thermal stabilisation call (2D-TPP, DLPTP, 10% FDR) (binary (1 = stabilised)); higher = stabilised by the compound
# Details: system: HL-60 intact cells; concentration range 0.04-10 µM
row,Target,dose-dependent thermal stabilisation call
1,KPNA4 (UniProt O00629),inactive: 0
2,LIPT1 (UniProt Q9Y234),inactive: 0
3,KLRAQ1 (UniProt Q6ZMI0),inactive: 0
4,LMF2 (UniProt Q9BU23),inactive: 0
5,KIF3A (UniProt Q9Y496),inactive: 0
6,LIAS (UniProt O43766),inactive: 0
7,KIAA1430 (UniProt Q9P2B7),inactive: 0
8,MAN2B1 (UniProt O00754),inactive: 0
9,LZIC (UniProt Q8WZA0),inactive: 0
10,LMO7 (UniProt Q8WWI1),inactive: 0
11,KIF21A (UniProt Q7Z4S6),inactive: 0
12,KIAA0999 (UniProt Q9Y2K2),inactive: 0
13,KPNA1 (UniProt P52294),inactive: 0
14,KLC2 (UniProt Q9H0B6),inactive: 0
15,KIAA1143 (UniProt Q96AT1),inactive: 0
16,LRRC14 (UniProt Q15048),inactive: 0
17,LEO1 (UniProt Q8WVC0),inactive: 0
18,LIMK1 (UniProt P53667),inactive: 0
19,LOC100131572,inactive: 0

# Random excerpt: 2 records from the list
row,Target,dose-dependent thermal stabilisation call
7,KIAA1430 (UniProt Q9P2B7),inactive: 0
13,KPNA1 (UniProt P52294),inactive: 0

# Further results follow.

row,Target,dose-dependent thermal stabilisation call
1,LOC727877,inactive: 0
2,LSM2 (UniProt Q9Y333),inactive: 0
3,LGTN (UniProt P41214),inactive: 0
4,LRPAP1 (UniProt P30533),inactive: 0
5,LOC100133930,inactive: 0
6,LUC7L (UniProt Q9NQ29),inactive: 0
7,KIAA1967 (UniProt Q8N163),inactive: 0
8,LTV1 (UniProt Q96GA3),inactive: 0
9,KIAA1033 (UniProt Q2M389),inactive: 0
10,LRRC47 (UniProt Q8N1G4),inactive: 0
11,KIAA0652 (UniProt O75143),inactive: 0
12,LCMT1 (UniProt Q9UIC8),inactive: 0
13,LIMD2 (UniProt Q9BT23),inactive: 0
14,LIMA1 (UniProt Q9UHB6),inactive: 0
15,KIF13B (UniProt Q9NQT8),inactive: 0
16,LOC728944,inactive: 0
17,KIF23 (UniProt Q02241),inactive: 0
18,KIAA1012 (UniProt Q9Y2L5),inactive: 0
